Experiment [1] has as its target T1, EGFP:DENND6A (human (cDNA of HeLa, HCT116 and MCF7 cells)) (UniProt Q8IWF6).
T1 sequence: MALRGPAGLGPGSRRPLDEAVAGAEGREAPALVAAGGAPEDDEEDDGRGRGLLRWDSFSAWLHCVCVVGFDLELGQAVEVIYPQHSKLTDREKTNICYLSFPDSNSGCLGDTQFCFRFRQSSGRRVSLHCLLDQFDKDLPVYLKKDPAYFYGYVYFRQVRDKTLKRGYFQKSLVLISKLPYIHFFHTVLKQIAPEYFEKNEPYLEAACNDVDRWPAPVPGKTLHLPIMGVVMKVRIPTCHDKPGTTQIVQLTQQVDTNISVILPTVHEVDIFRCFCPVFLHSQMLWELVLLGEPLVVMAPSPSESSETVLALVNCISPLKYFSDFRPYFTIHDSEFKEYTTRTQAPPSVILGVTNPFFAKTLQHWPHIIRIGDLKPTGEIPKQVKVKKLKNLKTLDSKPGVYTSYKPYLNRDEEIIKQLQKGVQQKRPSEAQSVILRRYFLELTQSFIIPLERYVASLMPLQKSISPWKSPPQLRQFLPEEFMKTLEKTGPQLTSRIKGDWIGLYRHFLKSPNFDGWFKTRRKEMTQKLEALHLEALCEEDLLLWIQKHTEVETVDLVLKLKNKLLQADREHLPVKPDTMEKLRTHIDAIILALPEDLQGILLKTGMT
The experiment is described as follows: co-IP.

Amino acid sequences for entries named in this document (tags omitted). A change or cut given only in a name is not applied to a line headed by its entry.
UniProt P61106, whole entry, looked up, stated change not applied: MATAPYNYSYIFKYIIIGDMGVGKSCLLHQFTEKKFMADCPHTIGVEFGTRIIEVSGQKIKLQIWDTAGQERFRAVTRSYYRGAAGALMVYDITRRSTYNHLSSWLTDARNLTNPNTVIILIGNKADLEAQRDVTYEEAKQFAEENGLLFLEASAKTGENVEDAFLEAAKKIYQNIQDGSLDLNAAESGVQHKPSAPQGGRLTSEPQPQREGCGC

Experiment [2] addresses GFP:RAB14 Q70L (CA) (human) (UniProt P61106). In words: proximity ligation.
Experiment [3] has the same target. The experiment is described as follows: co-IP.

No constants are given. Whether binding was seen depends on the method and setting. In cells and extracts the contact can be indirect. Some results given as binding are weak or reduced against the parent protein; the word gives no strength. Where a sequence is shown, tags or fusion partners need not be part of it.

B1: HA:RAB25 WT (protein, UniProt P57735 1-213)
chain: MGNGTEEDYNFVFKVVLIGESGVGKTNLLSRFTRNEFSHDSRTTIGVEFSTRTVMLGTAAVKAQIWDTAGLERYRAITSAYYRGAVGALLVFDLTKHQTYAVVERWLKELYDHAEATIVVMLVGNKSDLSQAREVPTEEARMFAENNGLLFLETSALDSTNVELAFETVLKEIFAKVSKQRQNSIRTNAITLGSAQAGQEPGPGEKRACCISL
For the molecule B1, the binding result in experiment [1] was “binds”.

B2: VPS54-13xMYC (protein, UniProt Q9P1Q0 1-977)
chain: MASSHSSSPVPQGSSSDVFFKIEVDPSKHIRPVPSLPDVCPKEPTGDSHSLYVAPSLVTDQHRWTVYHSKVNLPAALNDPRLAKRESDFFTKTWGLDFVDTEVIPSFYLPQISKEHFTVYQQEISQREKIHERCKNICPPKDTFERTLLHTHDKSRTDLEQVPKIFMKPDFALDDSLTFNSVLPWSHFNTAGGKGNRDAASSKLLQEKLSHYLDIVEVNIAHQISLRSEAFFHAMTSQHELQDYLRKTSQAVKMLRDKIAQIDKVMCEGSLHILRLALTRNNCVKVYNKLKLMATVHQTQPTVQVLLSTSEFVGALDLIATTQEVLQQELQGIHSFRHLGSQLCELEKLIDKMMIAEFSTYSHSDLNRPLEDDCQVLEEERLISLVFGLLKQRKLNFLEIYGEKMVITAKNIIKQCVINKVSQTEEIDTDVVVKLADQMRMLNFPQWFDLLKDIFSKFTIFLQRVKATLNIIHSVVLSVLDKNQRTRELEEISQQKNAAKDNSLDTEVAYLIHEGMFISDAFGEGELTPIAVDTTSQRNASPNSEPCSSDSVSEPECTTDSSSSKEHTSSSAIPGGVDIMVSEDMKLTDSELGKLANNIQELLYSASDICHDRAVKFLMSRAKDGFLEKLNSMEFITLSRLMETFILDTEQICGRKSTSLLGALQSQAIKFVNRFHEERKTKLSLLLDNERWKQADVPAEFQDLVDSLSDGKIALPEKKSGATEERKPAEVLIVEGQQYAVVGTVLLLIRIILEYCQCVDNIPSVTTDMLTRLSDLLKYFNSRSCQLVLGAGALQVVGLKTITTKNLALSSRCLQLIVHYIPVIRAHFEARLPPKQYSMLRHFDHITKDYHDHIAEISAKLVAIMDSLFDKLLSKYEVKAPVPSACFRNICKQMTKMHEAIFDLLPEEQTQMLFLRINASYKLHLKKQLSHLNVINDGGPQNGLVTADVAFYTGNLQALKGLKDLDLNMAEIWEQKR
For B2, the binding result is reported as “binds” in experiment [2] and “binds weakly” in experiment [3].

The values are drawn from doi:10.1101/2024.11.05.621850.
